Test: Oligosaccharide levels in whole breast milk of healthy mothers with low and high Fut2 activity (HPAEC-PAD)
Parameters: species or system human
Details: for concentration in breast milk, high Fut2 activity group compared to low Fut2 activity group: at 30, 60 and 120 days post partum, t-test; for change of concentration in human breast milk with time: determined at 30, 60 and 120 days after infants' birth; for natural levels in the breast milk of mothers with high Fut2 activity: high Fut2 activity = 2′Fucosyllactose above 0.2 g/L
Method: An open, single-centre, 1 group study was conducted including 50 subjects (mothers) lasting 4 months. Only healthy volunteers were included.
All subjects complied with all the following inclusion criteria: 1. Gestational age between 37 and not above 42 weeks, 2. Baby to be enrolled between birth and V1, 3. Mother not younger than 18 years and not older than 40 years of age, 4. pre-pregnancy BMI of the mother between 18.5-29.5. Mothers willing to breastfeed for the first 4 months after giving birth.
Analysis of oligosaccharides (2′Fucosyllactose and Lacto-N-Neotetraose) was conducted in duplicates on a 10 mL sample of whole breast milk fully expressed mature milk, corresponding to a complete feed, and taken after 30, 60 and 120 days after infants' birth (post partum).
Briefly, 1 mL of well mixed whole breast milk was centrifuged for 20 min at 1700×g. About 0.1 mL of skimmed milk supernatant was diluted 10× with water and 0.01 mL of the thus diluted supernatant were taken as a sample for analysis.
Samples were analyzed by high performance ion exchange chromatography (HPAEC; Thermo, Dionex, Ca) equipped with a CarboPac PA1 column (Thermo, Dionex, Ca) for separation and a pulsed amperometric detector (PAD) for detection of carbohydrates. Oligosaccharide identification was done based on comparison of retention times to authentic standards and enzymatic hydrolysis of samples (e.g. fucosidase, galactosidase). Oligosaccharide quantification was done using external standard curves with pure authentic oligosaccharides.
Data collection points were 30, 60 and 120 days after infants' birth. Means with standard deviation were calculated for 2′Fucosyllactose (2′FL) and Lacto-N-neotetraose levels measured in breast milk grouped into samples with (i) low Fut2 activity (<0.2 g/L 2′FL) and (ii) high Fut2 activity (>0.2 g/L 2′FL). Statistical difference of 2′FL and LNnT levels between the two groups was assessed by t-test.
6′Sialyllactose (6′SL) and 3′Sialyllactose (3′SL) levels were determined in the breast milk from healthy mothers with low Fut2 activity (<0.2 g/L 2′FL) and high FUT2 activity (>0.2 g/L 2′FL) at 30, 60 and 120 days after infants' birth.
In particular, analysis of 6′Sialyllactose (6′SL) and 3′Sialyllactose (3′SL) was conducted in duplicates on a 10 mL sample of whole breast milk fully expressed mature milk, corresponding to a complete feed, and taken after 30, 60 and 120 days after infants' birth (post partum).
Means with standard deviation were calculated for 6′Sialyllactose (6′SL) and 3′Sialyllactose (3′SL) levels measured in breast milk grouped into samples with (i) low Fut2 activity (<0.2 g/L 2′FL) and (ii) high Fut2 activity (>0.2 g/L 2′FL). Statistical difference of 2′FL and LNnT levels between the two groups was assessed by t-test.

[1] = high FUT2 activity (2′FL>0.2 g/L), 30 days post partum
[2] = high FUT2 activity (2′FL>0.2 g/L), 60 days post partum
[3] = high FUT2 activity (2′FL>0.2 g/L), 120 days post partum
[4] = low FUT2 activity (2′FL<0.2 g/L), 60 days post partum

SMILES | concentration in breast milk, high Fut2 activity group compared to low Fut2 activity group | change of concentration in human breast milk with time | level in breast milk, mean [1] | level in breast milk, mean [2] | level in breast milk, mean [3] | natural levels in the breast milk of mothers with high Fut2 activity | level in breast milk, mean (low FUT2 activity (2′FL<0.2 g/L), 30 days post partum) | level in breast milk, mean [4] | level in breast milk, mean (low FUT2 activity (2′FL<0.2 g/L), 120 days post partum) | level in breast milk, mean (high FUT2 activity (2′FL>0.2 g/L), 30 days post partum, listed as 2′Fucosyllactose) | level in breast milk, mean (high FUT2 activity (2′FL>0.2 g/L), 60 days post partum, listed as 2′Fucosyllactose) | level in breast milk, mean (high FUT2 activity (2′FL>0.2 g/L), 120 days post partum, listed as 2′Fucosyllactose)
CC(=O)N[C@H]1[C@H](O[C@H]2[C@@H](O)[C@@H](CO)O[C@@H](O[C@H]3[C@H](O)[C@@H](O)C(O)O[C@@H]3CO)[C@@H]2O)O[C@H](CO)[C@@H](O[C@@H]2O[C@H](CO)[C@H](O)[C@H](O)[C@H]2O)[C@@H]1O (mixture of isomers) [LNnT, Lacto-N-Neotetraose] | significantly higher | decreases with time | 0.26 g/L | 0.17 g/L | 0.11 g/L | up to 0.6 g/L | 0.19 g/L | 0.11 g/L | 0.07 g/L | – | – | –
C[C@@H]1O[C@@H](O[C@H]2[C@H](O[C@H]3[C@H](O)[C@@H](O)C(O)O[C@@H]3CO)O[C@H](CO)[C@H](O)[C@@H]2O)[C@@H](O)[C@H](O)[C@@H]1O (stereo partly shown) [2′FL, 2′Fucosyllactose] | – | decreases with time | 2.2 g/L | 1.8 g/L | 1.4 g/L | up to 5 g/L | – | 0.02 g/L | – | about 2.2 g/L | about 1.8 g/L | about 1.4 g/L
CC(=O)N[C@H]1[C@H]([C@H](O)[C@H](O)CO)O[C@@](O[C@H]2[C@@H](O)[C@@H](CO)O[C@@H](O[C@H]3[C@H](O)[C@@H](O)C(O)O[C@@H]3CO)[C@@H]2O)(C(=O)O)C[C@@H]1O (stereo partly shown) [3′SL, 3′Sialyllactose] | no significant differences | decreases with time | – | – | – | – | – | – | – | – | – | –
CC(=O)N[C@H]1[C@H]([C@H](O)[C@H](O)CO)O[C@@](OC[C@H]2O[C@@H](O[C@H]3[C@H](O)[C@@H](O)[C@H](O)O[C@@H]3CO)[C@H](O)[C@@H](O)[C@H]2O)(C(=O)O)C[C@@H]1O [6′SL, 6′Sialyllactose] | no significant differences | decreases with time | – | – | – | – | – | – | – | – | – | –
